Experimental data: paper PMC8093973
Results are given in words; binding and its absence hold for the method and conditions named. In cells and extracts the contact can be indirect. Some results given as binding are weak or reduced against the parent protein; the word gives no strength.

Protein sequences, listed by entry. Tags and fused reporters are not part of them. Lines headed by an entry give the natural chain unless they say otherwise; changes in a name come on top. Residues count along the entry.
UniProt Q9Y6G5: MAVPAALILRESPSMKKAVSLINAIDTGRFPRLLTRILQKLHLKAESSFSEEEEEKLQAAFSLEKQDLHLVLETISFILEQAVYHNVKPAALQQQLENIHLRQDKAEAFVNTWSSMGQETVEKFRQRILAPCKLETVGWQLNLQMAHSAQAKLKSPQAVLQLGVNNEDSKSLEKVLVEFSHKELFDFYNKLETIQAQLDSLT
N-terminal of COMMD10 (amino acids 1-132): residues 1-132 of Q9Y6G5
UniProt Q04206: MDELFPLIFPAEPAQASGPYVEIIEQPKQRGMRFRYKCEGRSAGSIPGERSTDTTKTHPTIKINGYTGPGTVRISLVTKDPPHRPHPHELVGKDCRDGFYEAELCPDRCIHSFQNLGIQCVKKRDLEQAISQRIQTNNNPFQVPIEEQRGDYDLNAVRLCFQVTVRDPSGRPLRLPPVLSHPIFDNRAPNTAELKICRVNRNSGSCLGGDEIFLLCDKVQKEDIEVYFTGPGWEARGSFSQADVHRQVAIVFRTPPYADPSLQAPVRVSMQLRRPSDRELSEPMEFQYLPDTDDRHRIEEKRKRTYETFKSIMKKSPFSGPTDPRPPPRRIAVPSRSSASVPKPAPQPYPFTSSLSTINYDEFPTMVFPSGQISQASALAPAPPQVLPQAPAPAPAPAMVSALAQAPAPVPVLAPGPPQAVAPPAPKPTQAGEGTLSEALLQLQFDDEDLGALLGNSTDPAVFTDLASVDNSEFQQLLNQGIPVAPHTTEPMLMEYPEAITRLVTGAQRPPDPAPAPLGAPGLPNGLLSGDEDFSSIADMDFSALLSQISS

What was measured:
[1] = biological target: COMMD10 (copper metabolism MURR1 domain-containing 10), endogenous (human (endogenous in HepG2)) (UniProt Q9Y6G5); assay: co-IP; endogenous COMMD10 immunoprecipitated from HepG2 cell lysates, NF-κB subunits blotted
[2] = biological target: COMMD10 (construct of the GST pull-down with p65 truncations, Figure 3F) (UniProt Q9Y6G5); assay: pull-down; GST pull-down with truncations of COMMD10 (Figure 3E) and of p65 (Figure 3F); which partner carried GST is not told
[3] = biological target: N-terminal of COMMD10 (amino acids 1-132) (UniProt Q9Y6G5); assay: as above

NF-κB p65, endogenous (from UniProt Q04206 1-551)
binding [1]: binds

truncated mutant p65 (amino acids 1-305), Rel homology domain (from UniProt Q04206 1-305) (domain or fragment)
binding [2]: binds

wild type p65 (construct of the GST pull-down) (from UniProt Q04206 1-551)
binding [2]: binds | binding [3]: binds
